# Test results as given in PubChem BioAssay AID652054 (National Center for Advancing Translational Sciences (NCATS), 2013).
# The chains behind the UniProt entries cited, without tags or fusion partners.
# UniProt P35462, whole entry, looked up: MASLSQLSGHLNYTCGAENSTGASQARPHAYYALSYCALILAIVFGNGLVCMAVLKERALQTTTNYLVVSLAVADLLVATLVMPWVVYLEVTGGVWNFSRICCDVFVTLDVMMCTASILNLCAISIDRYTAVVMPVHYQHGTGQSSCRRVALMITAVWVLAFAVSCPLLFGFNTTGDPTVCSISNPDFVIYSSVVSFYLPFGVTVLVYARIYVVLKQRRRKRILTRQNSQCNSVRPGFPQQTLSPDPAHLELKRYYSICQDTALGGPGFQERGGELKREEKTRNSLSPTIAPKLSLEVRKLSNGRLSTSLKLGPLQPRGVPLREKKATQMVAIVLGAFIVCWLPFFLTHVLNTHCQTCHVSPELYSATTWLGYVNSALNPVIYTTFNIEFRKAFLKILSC
# Screen size: about 360,000 compounds; about 9,100 (2.5%) were called active. The inconclusive results got no clear call from the source; some entries with a clear call stand among them for comparison. No stated cut-off is given here; in the data, active means max response below about -50%; inconclusive means no clear call, values can overlap the other calls; inactive means above that.
# Target: D(3) dopamine receptor (Homo sapiens) (UniProt P35462)
# Experiment: qHTS of D3 Dopamine Receptor Antagonist: qHTS
# Conditions: D3R cells, DiscoveRx beta-arrestin luminescence, antagonist mode; active compounds read low
# Outline: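 Cells plated overnight at 1500 cells/well, then exposed to library compounds with dopamine controls for 90 minutes at 37 degrees C. DiscoveRx reagent added for 30–60 minutes at room temperature; luminescence read, quantitative HTS format.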
# On the % scale 0 is the no-effect control and ±100 the full control effect.
row,SMILES,"max response, negative = inhibition"
1,COc1ccc(C(C[N+](=O)[O-])c2c(-c3ccccc3)cc3ccccn23)cc1 (stereo unspecified),active: -50.3%
2,OCCN(CCO)c1ncnc2c1sc1nc(N3CCOCC3)c3c(c12)CCCC3,inconclusive: -40.8%
3,O=S(=O)(c1ccc(NC(=S)N/N=C/c2c3ccccc3cc3ccccc23)cc1)N1CCOCC1,inactive: -22.7%
4,CN(C)CCN(Cc1ccccc1)C(=O)c1[nH]c(C(F)(F)F)nc1-c1ccccc1,inactive: 0%
5,CC(=O)c1ccc(OCC(O)CN2CCCC(C)C2)cc1 (stereo unspecified),inconclusive: -43%
6,O=C(CN1C2=NCCCN2c2ccccc21)c1ccc(Br)s1,active: -53.6%
7,COc1ccc(C2/C(=C(/O)c3ccccc3)C(=O)C(=O)N2CCN2CCOCC2)c(OC)c1 (stereo unspecified),active: -56.5%
8,O=C1C2C3C=CC(C3)C2C(=O)N1Nc1ccc([N+](=O)[O-])cc1[N+](=O)[O-] (stereo unspecified),inconclusive: -36.5%
9,O=C1c2ccccc2-c2cccc(C(=O)N3CCCCCC3)c21,inconclusive: -36.8%
10,CN(C)c1ccc(CN2CCC(C(=O)NC(c3ccc(F)cc3)c3ccc4ccccc4n3)CC2)cc1 (stereo unspecified),active: -81.9%
11,CCOC(=O)CC(=O)Nc1ccccc1C(=O)O,inconclusive: -42.5%
12,O=C(NC1CCCC1)c1ccccc1-c1nc2ccccc2[nH]1,inconclusive: -46.9%
13,NC1=NC(=Nc2ccccc2)c2ccccc21,inconclusive: -43%
14,O=C(NCc1ccncc1)c1ccc2nc([C@@H]3O[C@H](CO)[C@H](O)[C@H](O)[C@H]3O)[nH]c2c1,inconclusive: -43.6%
15,O=C(CCN1CCCCCC1)Nc1ccc(F)cc1,active: -83.6%
16,c1ccc(CN2CCN(c3nc(-c4ccccc4)nc(-n4ccnc4)n3)CC2)cc1,active: -63%
17,CCOc1ccc(-c2nnc(-c3cccs3)o2)cc1,inconclusive: -39.9%
18,COc1cc(S(=O)(=O)N(Cc2ccc(C)cc2)Cc2ccco2)ccc1-n1cnnn1,inconclusive: -41%
19,CCCn1c(SCC(=O)NCc2ccc3c(c2)OCO3)n[nH]c1=O,inconclusive: -31.2%

# Three structures out of the list, ordered by number of heavy atoms, falling:
row,SMILES,"max response, negative = inhibition"
3,O=S(=O)(c1ccc(NC(=S)N/N=C/c2c3ccccc3cc3ccccc23)cc1)N1CCOCC1,inactive: -22.7%
12,O=C(NC1CCCC1)c1ccccc1-c1nc2ccccc2[nH]1,inconclusive: -46.9%
15,O=C(CCN1CCCCCC1)Nc1ccc(F)cc1,active: -83.6%

# Carrying on:

row,SMILES,"max response, negative = inhibition"
1,O=C(CSc1nc2ccccc2c(=O)n1-c1ccccc1F)NC1CCS(=O)(=O)C1 (stereo unspecified),inconclusive: -32.7%
2,CC(=O)c1ccc(OC2(C)CCN(Cc3cc4ccccc4[nH]3)C2)cc1 (stereo unspecified),active: -55%
3,Cc1c(C(=O)N/N=C/c2ccccc2)sc(=S)n1C,inconclusive: -34.7%
4,COc1cc(NC(=O)c2ccc(NC3=NC4CS(=O)(=O)CC4S3)cc2)cc(OC)c1OC (stereo unspecified),inconclusive: -48.5%
5,O=S(=O)(c1ccc2ccccc2c1)N1CCN=C1SCc1cccnc1,inactive: 8.39%
6,c1ccc(CN2CCC(N=C3NN=C(c4ccc5c(c4)OCCO5)CS3)CC2)cc1,inconclusive: -42.5%
7,Cc1cc2n(n1)C(c1sccc1C)Nc1c(C)cccc1-2 (stereo unspecified),inconclusive: -48.1%
8,COc1ccc2cc(-c3ccsc3)ncc2c1,inconclusive: -46.7%
9,Cc1ccc(NC(=O)CN(C)C(=O)c2cn(Cc3ccccc3)nc2-c2cccnc2)cc1,inconclusive: -40.9%
10,COc1ccc(Cl)c(-c2cc(C(=O)Nc3ccc(F)cc3)[nH]n2)c1,active: -52%
11,NC(=S)NN=C1CCSCC1,inconclusive: -41.5%
12,Cc1csc(C(C)NC(=O)c2ccc(OC3CCN(CCc4ccccc4)CC3)cc2)n1 (stereo unspecified),inconclusive: -43.4%
13,CCOC(=O)C(=CNc1nc(-c2ccc3ccccc3c2)cs1)C(=O)OCC,inactive: 72.8%
14,COCC(=O)Nc1nnc(-c2cccs2)s1,active: -72.4%
15,Cc1ccc(C(=O)Cn2nnc3ccccc32)cc1[N+](=O)[O-],inconclusive: -34.8%
16,Cc1ccc2[nH]c(=O)c(C3C(C#N)=C(N)Oc4c3ccc3cccnc43)cc2c1 (stereo unspecified),inconclusive: -41.2%
17,O=C(COc1ccc2ccccc2c1CN1CCOCC1)N1CCc2ccccc21,active: -68.6%
18,CC1CC(C)CN(CCCNC(=O)c2cc3c(=O)[nH]c4ccccc4c3n2C)C1 (stereo unspecified),active: -64.5%
19,CCOC(=O)c1[nH]c(=O)[nH]c1CSc1nc(C)cc(C)n1,inconclusive: -44.1%

row,SMILES,"max response, negative = inhibition"
1,Cc1ccc(-n2cccc2/C=C2/NC(=O)N(CC(=O)Nc3cccc(C)c3)C2=O)cc1,inconclusive: -30.4%
2,CCC1(c2ccccc2)SC(N)=NC1=O (stereo unspecified),inconclusive: -31.1%
3,Cc1ccc(-n2c(-c3ccc(Br)cc3)c[n+]3c2CCc2ccc4cccnc4c2-3)cc1,inconclusive: -49.1%
4,Cc1nn(C(C)C(=O)c2cccc(Cl)c2)c(C)c1[N+](=O)[O-] (stereo unspecified),inactive: 11.2%
5,O=C(Nc1ccc(F)c(Cl)c1)c1cc(C2CCCCN2C(=O)c2ccccc2)on1 (stereo unspecified),inconclusive: -42.4%
6,O=c1cc(N2CCc3ccccc3C2)[nH]c(=O)n1-c1ccc(Cl)cc1,inconclusive: -32.7%
7,Cc1ccc(S(=O)(=O)N2CCOCC2)cc1C(=O)NC1CCN(Cc2ccccc2)CC1,inactive: 6.92%
8,CC(C)(C)NCCOCCOc1ccc(Cl)cc1C(C)(C)C,inconclusive: -43.7%
9,O=C(NCCc1ccccc1)N1c2ccccc2Sc2ccccc21,inconclusive: -46.2%
10,O=C(Nc1ccc(Cl)cn1)C1CCCN1S(=O)(=O)c1cccc2ccccc12 (stereo unspecified),inconclusive: -34.6%
11,CCN1CCN(Cc2ccc(NC(=O)c3ccc(C)c(/C=C/c4cnc(Nc5cc(N6CCNCC6)nc(C)n5)cn4)c3)cc2C(F)(F)F)CC1,inconclusive: -49.9%
12,COc1cc(OC)cc(C(=O)NNC(=O)c2ccc3ccccc3n2)c1,inconclusive: -34.1%
13,Cc1cc(C)c(NC(=O)Cn2nnc(C(=O)NCc3ccco3)c2N)c(C)c1,inconclusive: -39.9%
14,Cc1cc(C)c2nc(N3CCCC(C(=O)NCCCN4CCOCC4)C3)sc2c1 (stereo unspecified),inconclusive: -39.3%
15,C=CCc1cccc(/C=N/NC(=O)CCCNc2ccc(C)cc2)c1O,inconclusive: -31.9%
16,Cc1nc(Cl)cc(N/N=C/c2ccc(O)cc2)n1,inactive: -1.69%
17,O=C(CC1NCCc2ccccc21)Nc1ccc(Cl)cc1 (stereo unspecified),active: -87.2%
18,c1ccc(SCCCCNC2CCCC2)cc1,inconclusive: -48.4%
